US7563766B2, “Methods and compositions for the promotion of a hair growth utilizing actin binding peptides” (The United States of America as represented by the …, priority 2002, dated 2009)
For part of these data: At least one peptide structure holds a part that was inferred or is arguable (an end, a ring closure or a residue). For part of these data: At least one structure is not confirmed: it was looked up by name or label, or the drawing left a doubt.

Assays:
hair follicles [1] = assay: Hair growth around full thickness punch wounds in rats, topical thymosin β4 in hydrogel; format: in vivo, rat
hair follicles [2] = assay: Topical thymosin β4 on normal (unwounded) shaved rat skin; format: in vivo; details: for new hair growth: 0.5 mg/ml in hydrogel three times per week
Experimental: In these experiments, 8 week old female Sprague Dawley rats were utilized. Thymosin β4 was applied on the shaved backs of the animals at a concentration of 0.5 mg/ml in hydrogel three times per week (Monday, Wednesday and Friday). The hair of the animals was observed over 30 days. Some of the animals were sacrificed on day 7 after the initiation of treatment, while others were sacrificed on day 30 after initiation of treatment. Tissue sections were prepared using methods known in the art, as indicated above in Example 1. The tissue section samples were all read and compared on a blind basis by an observer trained in dermatology.
One study used shaved rats where thymosin β4 was applied topically on one side of the shaved area and on the opposing lateral side a control vehicle was applied. […] The number of anagen follicles was approximately two-fold greater than in rats treated with the control vehicle alone (see FIG. 7D). […] The increased number of hairs in the anagen phase was retained with continued tri-weekly treatment over 30 days. However, within 14 days of ceasing treatment, the number of active hair follicles decreased to control levels.

hair follicles [3] = assay: Topical thymosin β4 on skin of athymic nu nu nude mice; format: in vivo, mouse
hair follicles [4] = assay: Topical thymosin β4 or T-3 on shaved aged BALB/c mice; format: in vivo, mouse; details: 26 month old BALB/c mice, thymosin β4 at shaving and 48 hours later, day 7
Experimental: These mice are considered highly aged as they are alive beyond the normal mouse life expectancy. […] The mice were shaved and treated as described above with thymosin β4 at the time of shaving and 48 hours later. At day 7, the skin was harvested and examined histologically, as described above in Example 1.
The T-3 fragment was produced using an automated peptide synthesizer, as is well known in the art.
The synthetic T-3 peptide was applied in a water solution/mixture at a concentration/dose of 5 μg/50 μl. […] Thus, a fragment of thymosin β4 comprising these amino acids is useful in hair regeneration compositions.

clonogenic keratinocytes [5] = assay: Clonogenic keratinocyte migration, Boyden chamber; format: cell-based, rat; details: for clonogenic keratinocyte migration, Average: ± SEM
keratin 15 = assay: Keratin 15 levels in clonogenic rat vibrissae stem cells (blot, densitometry); format: cell-based; details: serum depleted 16 hours, then 6 hours with different concentrations of thymosin β4
clonogenic keratinocytes [6] = assay: Stem cell proliferation; format: cell-based, rat
MMP-2 = assay: Zymographic analysis of MMP-2 levels in clonogenic stem cells; format: cell-based, rat; details: exogenous thymosin β4
MMP-9 = assay: Zymographic analysis of MMP-9 levels in clonogenic stem cells; format: cell-based, rat; details: exogenous thymosin β4
[7] = tested on: human umbilical vein endothelial cells; assay: HUVEC migration, Boyden chamber assay; format: cell-based; design: key to Migration: − = no activity; +/− = low activity; + = active; ++ = high activity
Experimental: Cells—HUVECs were isolated and used at passages 2-5. Grant et al., J. Cell Sci. 108:3685-3694 (1995). The cells were cultured in RPMI 1640 (Invitrogen, Carlsbad, Calif.) supplemented with 20% bovine calf serum (Hyclone Laboratories, Logan, Utah), 200 μg/ml of endothelial cell growth supplement (ECGS) (Collaborative Biomedical Products, Bedford, Mass.), 0.8 U/ml heparin sodium (Fisher Scientific, Pittsburgh, Pa.), penicillin/streptomycin (Invitrogen, Carlsbad, Calif.), 10 μg/ml gentamycin (Invitrogen, Carlsbad, Calif.), and 1% fungizone (Invitrogen, Carlsbad, Calif.).
Boyden chamber assay—HUVEC migration assays were conducted in a 48-well micro-chemotaxis chamber (Neuro Probe Inc., Cabin John, Md.) as previously described in Salcedo et al., J. Immunol. 166:7571-7578 (2001). Briefly, PVP-free polycarbonate membranes with 8 μm pores were coated with 50 μg/ml of rat tail collagen (BD Biosciences, Bedford, Mass.) in RPMI 1640 that contained 25 mM HEPES (Invitrogen, Carlsbad, Calif.) at 4° C. overnight. The membranes were dried at least 1 hr prior to use. HUVECs were serum-starved for 2 hr, harvested using Versene (Invitrogen, Carlsbad, Calif.), and resuspended in binding medium that contained RPMI 1640 with 1% BSA and 25 mM HEPES. […] The cells that successfully migrated through the pores of the membrane were manually quantitated using a CK-2 Olympus microscope at 10× magnification. […]

chick aortic arches = assay: Chick aortic arch vessel sprouting assay; format: cell-based; design: key to Sprouting: − = no activity; +/− = low activity; + = active; ++ = high activity
Experimental: Chick aortic arch assay—The aortic arch of 13-day-old chick embryos was removed and placed in RPMI 1640. After removal of surrounding connective tissue, transverse sections of the arch were made (1 mm). The resulting aortic rings were carefully attached to the bottom of a 48-well plate, one ring per well, with 20-30 μl of Matrigel (Collaborative Biomedical Products). The rings were placed so that the lumen of each ring could be seen. More Matrigel was added onto the top of the rings to seal them in place. A 100 μl volume of human endothelial—SFM basal growth medium (Invitrogen) containing 1% penicillin streptomycin was added to each well. Thymosin β4, peptide fragments, and exogenous actin (Sigma Chemical Co.) were added to wells in serum-free medium, bringing the final volume of each well to 400 μl. ECGS (200 μg/ml) was used as a positive control. The plates were incubated for 24 hr at 37° C. Rings were fixed and stained with Diff-Quik solution II. Sprouting was scored in a blind assessment by an observer using 10× magnification on an Olympus microscope. Six wells were used for each condition tested, and each assay was done three times.

[8] = tested on: male and female androgenetic patients; details: cited from earlier work
[9] = three times per week for 35 days, hydrogel

Which “number of hair follicles (histology)” value (hair follicles [1]; after 7 days, relative to control gel-treated animals and untreated skin) does the source give for `CC[C@H](C)[C@H](NC(=O)[C@H](CCC(=O)O)NC(=O)[C@H](C)NC(=O)[C@H](CCSC)NC(=O)[C@H](CC(=O)O)NC(=O)[C@@H]1CCCN1C(=O)[C@H](CCCCN)NC(=O)[C@H](CC(=O)O)NC(=O)[C@H](CO)NC(C)=O)C(=O)N[C@@H](CCC(=O)O)C(=O)N[C@@H](CCCCN)C(=O)N[C@@H](Cc1ccccc1)C(=O)N[C@@H](CC(=O)O)C(=O)N[C@@H](CCCCN)C(=O)N[C@@H](CO)C(=O)N[C@@H](CCCCN)C(=O)N[C@@H](CC(C)C)C(=O)N[C@@H](CCCCN)C(=O)N[C@@H](CCCCN)C(=O)N[C@H](C(=O)N[C@@H](CCC(=O)O)C(=O)N[C@H](C(=O)N[C@@H](CCC(N)=O)C(=O)N[C@@H](CCC(=O)O)C(=O)N[C@@H](CCCCN)C(=O)N[C@@H](CC(N)=O)C(=O)N1CCC[C@H]1C(=O)N[C@@H](CC(C)C)C(=O)N1CCC[C@H]1C(=O)N[C@@H](CO)C(=O)N[C@@H](CCCCN)C(=O)N[C@@H](CCC(=O)O)C(=O)N[C@H](C(=O)N[C@H](C(=O)N[C@@H](CCC(=O)O)C(=O)N[C@@H](CCC(N)=O)C(=O)N[C@@H](CCC(=O)O)C(=O)N[C@@H](CCCCN)C(=O)N[C@@H](CCC(N)=O)C(=O)N[C@@H](C)C(=O)NCC(=O)N[C@@H](CCC(=O)O)C(=O)N[C@@H](CO)C(=O)O)[C@@H](C)CC)[C@@H](C)O)[C@@H](C)O)[C@@H](C)O` [Tβ4, Thymosin β4] here?
The value was “increase in the number of hair follicles”.

And the “hair growth around the wound site (visual)” value (hair follicles [1]; approx 25 μg/50 μl (0.05%) in hydrogel, day of wounding and 48 hours after)?
Its value is “increased hair growth around the wound site”.

What about the “appearance of hair growth vs surrounding hair in other shaved areas” value (hair follicles [1]; approx 25 μg/50 μl in hydrogel, visual) of the same compound?
The value was “longer and denser”.

And the new hair growth (hair follicles [2]; 30 days)?
Its new hair growth is “new hair growth was stimulated”.

What about the new hair growth (hair follicles [2]; day 7) of the same compound?
Its new hair growth is “stimulate new hair growth”.

What about the follicle size (hair follicles [2]; 0.05% in hydrogel, 7 days) of the same compound?
The follicle size was “larger in diameter”.

What about the “hair appearance vs untreated areas” value (hair follicles [2]; 0.05% in hydrogel, 7 days) of the same compound?
Its value is “longer and thicker”.

What about the “number of anagen follicles relative to control vehicle alone” value (hair follicles [2]; 0.05% in hydrogel, topical, after 7 days of treatment) of the same compound?
Its value is “approximately two-fold”.

And the “time after ceasing treatment until number of active hair follicles decreased to control levels” value (hair follicles [2]; after ceasing treatment)?
Its value is ≤ 14 days.

And the “increased number of hairs in the anagen phase with continued treatment” value (hair follicles [2]; continued tri-weekly treatment over 30 days)?
The value was “retained”.

And the “hair growth in treated areas” value (hair follicles [3]; 0.05% in hydrogel every other day, day 7 and day 35)?
Its value is “increased hair growth”.

What about the “hair growth, macroscopic” value (hair follicles [3]; [9]) of the same compound?
The value was “visible hair growth was observed”.

What about the “new hair follicles by histology” value (hair follicles [3]; [9]) of the same compound?
Its value is “increased numbers of new hair follicles”.

And the “follicle development (histology)” value (hair follicles [4])?
The value was “New follicle development was clearly observed”.

What about the “concentration at which effect on cell migration was greatest” value (clonogenic keratinocytes [5]) of the same compound?
Its value is 1 ng per ml.

And the “increase of cell migration over binding medium alone” value (clonogenic keratinocytes [5]; 4.5 hrs, p≦0.0006)?
Its value is ~2 fold.

And the “clonogenic keratinocyte migration, Average” value (clonogenic keratinocytes [5]; Tβ4 1 ng, 4.5 hrs)?
The value was 113.3 ± 5.5 cells/field.

What about the “clonogenic keratinocyte migration, Average” value (clonogenic keratinocytes [5]; Tβ4 100 ng, 4.5 hrs) of the same compound?
The value was 79.3 ± 6.6 cells/field.

And the “levels of K15” value (keratin 15)?
Its value is “dose-dependent decrease”.

What about the stem cell proliferation (clonogenic keratinocytes [6]) of the same compound?
Its stem cell proliferation is “No effect”.

What about the “levels of secreted and cell-derived MMP-2” value (MMP-2) of the same compound?
Its value is “dose-dependent increase”.

And the MMP-9 levels (MMP-9)?
Its MMP-9 levels is “no significant effect”.

What about the “concentration at which near identical activity is displayed, migration” value [7] of the same compound?
Its value is “approximately 50 nM”.

And the Migration ([7]; Table 2 score)?
The Migration was “++”.

And the “concentration at which near identical activity is displayed, vessel sprouting” value (chick aortic arches)?
Its value is “approximately 50 nM”.

What about the “vessel sprouting, in words” value (chick aortic arches) of the same compound?
The value was “promoted sprouting”.

What about the Sprouting (chick aortic arches; Table 2 score) of the same compound?
The Sprouting was “++”.

What about the “activity in the assays (endothelial cell migration and vessel sprouting)” value (chick aortic arches; statement covers both migration and sprouting assays) of the same compound?
Its value is “active”.

For `Nc1cc(N2CCCCC2)nc(N)[n+]1[O-]` [minoxidil], which “share of patients with visible hair growth” value ([8]; topical 2%, male and female androgenetic patients) is on record?
Its value is “approximately ⅓”.

What about the “patients in whom hair loss is retarded” value ([8]; topical 2%) of the same compound?
Its value is “approximately 80%”.

And the “share of patients with fine-hair growth” value ([8]; topical 2%)?
Its value is “approximately ⅓”.

And the “share of patients with no hair growth” value ([8]; topical 2%)?
The value was “approximately ⅓”.

And the “patients with visible hair growth” value ([8]; topical 5%, male androgenetic alopecia patients)?
The value was 45%.
